Source: US6958318B2, “Recombinant bacterial cells for delivery of PNP to tumor cells” (The UAB Research Foundation, priority 1993, dated 2005)
For at least one compound, name, drawing or mass did not settle the structure. Marks after values point to notes of the source that are not given here.

Tested on: 16/C-PNP tumors
Experiment: E. coli PNP-transduced 16/C tumors in B6C3F1 mice
Format: in vivo
Settings: tumors that completely regressed not included
Experimental: Transduced 16/C cells were implanted in mice by subcutaneous injection of approximately 10^6 cells harvested from the cultures of stably transduced 16/C cells described above. The mice were examined visibly for tumor growth and those with developing tumors were maintained. To prepare mice for use in the in vivo experiments, the tumors were removed from mice with significant tumor growth and cut into 30-60 mg pieces. One 30-60 mg piece of the tumor was subcutaneously implanted into the subaxillary region of each female B6C3F1 mouse. The tumors were allowed to develop and mice with tumors of 100 mm^3 were used.
Six mice per group with established PNP-transduced 16/C tumors were treated with aqueous control solution, MeP-dR or F-ara AMP, as above. […] (Table III, 16/C-PNP treatment.)

Compound: Cc1ncnc2c1ncn2[C@H]1C[C@H](O)[C@@H](CO)O1 [MeP-dR, 9-(β-D-2-deoxyerythropentofuranosyl)-6-methylpurine]
- Days for tumor to double 3 times mean/SD: 14.2 ∀ 3.2*** Days
